In the supplement of paper PMC10849652 one finds log2 fold change data, which are given here for 40 targets.

Protein sequences, listed by entry. Tags and fused reporters are not part of them. Lines headed by an entry give the natural chain unless they say otherwise; changes in a name come on top.
UniProt Q9Y4B6: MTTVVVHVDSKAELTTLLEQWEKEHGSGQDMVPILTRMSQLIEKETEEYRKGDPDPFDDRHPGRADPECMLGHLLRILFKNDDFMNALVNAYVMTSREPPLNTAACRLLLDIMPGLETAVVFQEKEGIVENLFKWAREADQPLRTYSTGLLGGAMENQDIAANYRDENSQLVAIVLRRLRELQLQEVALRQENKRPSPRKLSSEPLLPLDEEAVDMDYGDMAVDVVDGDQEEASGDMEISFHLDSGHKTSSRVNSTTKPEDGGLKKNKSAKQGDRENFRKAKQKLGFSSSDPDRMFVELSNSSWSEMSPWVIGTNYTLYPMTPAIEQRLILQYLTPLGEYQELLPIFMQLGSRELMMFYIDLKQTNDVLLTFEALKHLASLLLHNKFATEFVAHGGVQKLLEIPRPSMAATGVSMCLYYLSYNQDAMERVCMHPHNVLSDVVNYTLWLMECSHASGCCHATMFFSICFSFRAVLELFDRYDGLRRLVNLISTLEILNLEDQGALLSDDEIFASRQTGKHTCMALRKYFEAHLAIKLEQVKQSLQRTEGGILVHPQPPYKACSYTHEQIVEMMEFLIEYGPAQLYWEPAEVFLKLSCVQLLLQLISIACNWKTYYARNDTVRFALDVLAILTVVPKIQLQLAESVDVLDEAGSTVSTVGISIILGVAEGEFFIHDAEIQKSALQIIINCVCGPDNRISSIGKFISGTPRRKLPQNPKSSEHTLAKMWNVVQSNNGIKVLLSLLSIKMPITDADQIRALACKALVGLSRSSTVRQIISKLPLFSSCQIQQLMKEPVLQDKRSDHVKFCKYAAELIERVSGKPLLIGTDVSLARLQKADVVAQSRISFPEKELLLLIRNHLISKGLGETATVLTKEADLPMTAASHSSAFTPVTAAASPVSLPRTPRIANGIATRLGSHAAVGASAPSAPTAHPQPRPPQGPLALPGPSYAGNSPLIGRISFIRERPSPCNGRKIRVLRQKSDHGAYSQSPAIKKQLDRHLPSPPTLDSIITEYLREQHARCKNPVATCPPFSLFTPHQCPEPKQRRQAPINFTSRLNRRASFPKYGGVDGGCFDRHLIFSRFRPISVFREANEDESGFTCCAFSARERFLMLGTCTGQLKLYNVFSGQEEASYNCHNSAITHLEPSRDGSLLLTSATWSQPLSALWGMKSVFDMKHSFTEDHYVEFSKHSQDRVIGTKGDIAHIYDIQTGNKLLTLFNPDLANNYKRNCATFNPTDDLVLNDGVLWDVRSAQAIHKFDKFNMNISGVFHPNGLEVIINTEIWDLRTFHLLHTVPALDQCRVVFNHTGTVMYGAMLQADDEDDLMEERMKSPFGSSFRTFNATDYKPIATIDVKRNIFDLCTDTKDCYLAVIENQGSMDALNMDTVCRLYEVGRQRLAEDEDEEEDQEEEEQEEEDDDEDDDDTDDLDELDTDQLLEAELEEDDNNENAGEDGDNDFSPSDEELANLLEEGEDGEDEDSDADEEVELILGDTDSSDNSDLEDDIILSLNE
UniProt Q9BTE1, whole entry, looked up: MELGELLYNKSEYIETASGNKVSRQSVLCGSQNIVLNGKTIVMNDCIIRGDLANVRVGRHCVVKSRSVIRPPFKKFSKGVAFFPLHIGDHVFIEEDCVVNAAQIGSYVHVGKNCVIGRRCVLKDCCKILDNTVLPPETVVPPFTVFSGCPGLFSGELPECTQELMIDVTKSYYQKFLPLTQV
UniProt P0CG12: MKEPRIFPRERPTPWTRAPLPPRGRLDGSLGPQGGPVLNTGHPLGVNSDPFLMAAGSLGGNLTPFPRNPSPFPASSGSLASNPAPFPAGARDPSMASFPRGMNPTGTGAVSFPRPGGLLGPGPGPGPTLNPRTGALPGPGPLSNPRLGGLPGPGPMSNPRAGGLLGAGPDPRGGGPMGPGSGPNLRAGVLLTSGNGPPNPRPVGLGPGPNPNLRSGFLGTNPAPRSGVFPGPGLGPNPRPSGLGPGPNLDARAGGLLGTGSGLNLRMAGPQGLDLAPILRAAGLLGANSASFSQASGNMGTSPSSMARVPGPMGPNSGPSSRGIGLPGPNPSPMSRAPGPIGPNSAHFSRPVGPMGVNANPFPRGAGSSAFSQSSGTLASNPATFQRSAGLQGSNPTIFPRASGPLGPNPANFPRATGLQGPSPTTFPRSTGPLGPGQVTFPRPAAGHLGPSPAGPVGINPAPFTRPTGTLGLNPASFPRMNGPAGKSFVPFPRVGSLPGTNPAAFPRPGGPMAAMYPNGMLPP
UniProt Q9NPI6: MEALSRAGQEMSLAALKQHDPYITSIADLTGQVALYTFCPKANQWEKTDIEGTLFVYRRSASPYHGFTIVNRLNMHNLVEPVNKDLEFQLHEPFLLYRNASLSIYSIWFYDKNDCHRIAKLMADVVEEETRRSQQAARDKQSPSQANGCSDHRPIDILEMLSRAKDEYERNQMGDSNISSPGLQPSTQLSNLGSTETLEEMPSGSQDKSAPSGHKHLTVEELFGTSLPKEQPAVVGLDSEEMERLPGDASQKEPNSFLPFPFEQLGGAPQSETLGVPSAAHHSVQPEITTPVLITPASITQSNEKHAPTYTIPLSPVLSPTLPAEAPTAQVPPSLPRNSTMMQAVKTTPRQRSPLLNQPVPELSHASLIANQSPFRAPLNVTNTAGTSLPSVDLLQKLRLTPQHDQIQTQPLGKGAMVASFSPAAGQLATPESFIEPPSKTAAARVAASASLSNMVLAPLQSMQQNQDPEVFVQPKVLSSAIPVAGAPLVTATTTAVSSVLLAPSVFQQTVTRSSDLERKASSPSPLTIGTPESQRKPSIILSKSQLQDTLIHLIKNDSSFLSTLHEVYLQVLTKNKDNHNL
UniProt Q9NVP1: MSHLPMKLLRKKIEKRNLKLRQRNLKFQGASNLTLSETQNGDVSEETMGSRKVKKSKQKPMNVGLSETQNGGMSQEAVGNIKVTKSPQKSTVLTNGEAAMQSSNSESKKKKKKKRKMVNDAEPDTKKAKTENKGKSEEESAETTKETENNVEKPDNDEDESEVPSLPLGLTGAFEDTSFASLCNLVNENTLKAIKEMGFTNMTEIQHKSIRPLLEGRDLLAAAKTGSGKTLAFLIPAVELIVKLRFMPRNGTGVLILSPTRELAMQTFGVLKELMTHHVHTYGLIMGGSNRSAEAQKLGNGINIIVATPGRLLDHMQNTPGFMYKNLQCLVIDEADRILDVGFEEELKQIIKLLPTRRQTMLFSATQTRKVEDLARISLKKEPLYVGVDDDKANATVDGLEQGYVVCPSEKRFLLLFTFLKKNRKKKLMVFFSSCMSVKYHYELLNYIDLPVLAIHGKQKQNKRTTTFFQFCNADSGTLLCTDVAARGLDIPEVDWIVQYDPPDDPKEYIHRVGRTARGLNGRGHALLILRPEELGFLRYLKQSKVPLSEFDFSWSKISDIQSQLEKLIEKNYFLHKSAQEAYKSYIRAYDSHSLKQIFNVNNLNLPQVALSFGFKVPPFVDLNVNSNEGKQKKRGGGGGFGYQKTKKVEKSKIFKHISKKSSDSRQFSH
UniProt Q7L014: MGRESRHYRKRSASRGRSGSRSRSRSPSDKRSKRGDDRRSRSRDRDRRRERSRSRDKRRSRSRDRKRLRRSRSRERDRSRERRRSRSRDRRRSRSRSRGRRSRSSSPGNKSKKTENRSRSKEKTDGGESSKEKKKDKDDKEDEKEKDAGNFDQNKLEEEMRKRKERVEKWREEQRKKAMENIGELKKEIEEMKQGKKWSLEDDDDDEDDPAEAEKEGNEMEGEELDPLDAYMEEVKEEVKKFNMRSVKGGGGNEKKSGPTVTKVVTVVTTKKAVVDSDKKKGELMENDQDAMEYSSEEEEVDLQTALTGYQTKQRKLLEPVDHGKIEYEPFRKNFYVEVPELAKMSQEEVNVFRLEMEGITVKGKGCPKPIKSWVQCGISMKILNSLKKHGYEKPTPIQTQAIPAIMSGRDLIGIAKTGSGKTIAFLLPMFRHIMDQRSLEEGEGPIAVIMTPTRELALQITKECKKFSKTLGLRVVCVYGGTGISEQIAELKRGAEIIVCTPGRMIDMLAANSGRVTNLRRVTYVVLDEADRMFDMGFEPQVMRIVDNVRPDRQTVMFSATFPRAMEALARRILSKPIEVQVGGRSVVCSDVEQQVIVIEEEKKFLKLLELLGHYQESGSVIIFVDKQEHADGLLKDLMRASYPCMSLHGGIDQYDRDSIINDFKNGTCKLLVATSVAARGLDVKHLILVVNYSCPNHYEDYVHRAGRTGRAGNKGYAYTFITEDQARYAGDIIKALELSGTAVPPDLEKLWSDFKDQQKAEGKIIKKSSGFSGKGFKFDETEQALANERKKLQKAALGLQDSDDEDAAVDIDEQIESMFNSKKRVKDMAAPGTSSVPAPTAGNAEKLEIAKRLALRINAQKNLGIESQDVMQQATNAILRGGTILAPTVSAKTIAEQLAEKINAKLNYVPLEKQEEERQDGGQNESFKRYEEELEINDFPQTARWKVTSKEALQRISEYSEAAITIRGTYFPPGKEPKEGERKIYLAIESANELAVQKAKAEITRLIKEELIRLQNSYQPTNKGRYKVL
UniProt Q92841: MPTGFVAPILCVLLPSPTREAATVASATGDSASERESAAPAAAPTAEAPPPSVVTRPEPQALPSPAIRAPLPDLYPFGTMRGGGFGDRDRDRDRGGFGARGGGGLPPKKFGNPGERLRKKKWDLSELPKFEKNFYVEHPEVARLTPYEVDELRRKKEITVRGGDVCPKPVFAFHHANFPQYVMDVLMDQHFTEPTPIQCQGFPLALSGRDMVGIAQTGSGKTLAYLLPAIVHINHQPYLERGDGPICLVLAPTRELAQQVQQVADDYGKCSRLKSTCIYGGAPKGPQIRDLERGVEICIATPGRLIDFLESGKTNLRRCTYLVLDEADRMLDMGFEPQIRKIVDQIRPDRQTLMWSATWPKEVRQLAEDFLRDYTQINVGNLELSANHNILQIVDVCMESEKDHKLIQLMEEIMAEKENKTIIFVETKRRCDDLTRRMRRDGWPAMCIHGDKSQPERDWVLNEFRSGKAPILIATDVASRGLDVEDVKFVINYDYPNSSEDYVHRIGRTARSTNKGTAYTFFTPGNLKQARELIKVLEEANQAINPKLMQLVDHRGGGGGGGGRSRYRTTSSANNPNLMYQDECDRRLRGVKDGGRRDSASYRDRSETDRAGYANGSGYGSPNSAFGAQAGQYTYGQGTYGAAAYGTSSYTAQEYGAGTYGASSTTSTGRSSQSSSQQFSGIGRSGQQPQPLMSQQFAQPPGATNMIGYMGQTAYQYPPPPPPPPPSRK
UniProt P61962: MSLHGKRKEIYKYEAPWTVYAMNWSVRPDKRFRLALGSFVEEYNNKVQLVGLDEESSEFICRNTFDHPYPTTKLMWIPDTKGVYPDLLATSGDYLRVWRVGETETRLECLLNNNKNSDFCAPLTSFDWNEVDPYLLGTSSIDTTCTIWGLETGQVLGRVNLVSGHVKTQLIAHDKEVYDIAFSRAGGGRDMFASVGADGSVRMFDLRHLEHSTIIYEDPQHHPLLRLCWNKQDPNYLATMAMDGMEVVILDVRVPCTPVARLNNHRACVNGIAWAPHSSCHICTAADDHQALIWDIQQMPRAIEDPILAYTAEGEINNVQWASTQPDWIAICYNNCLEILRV
UniProt Q9NR30: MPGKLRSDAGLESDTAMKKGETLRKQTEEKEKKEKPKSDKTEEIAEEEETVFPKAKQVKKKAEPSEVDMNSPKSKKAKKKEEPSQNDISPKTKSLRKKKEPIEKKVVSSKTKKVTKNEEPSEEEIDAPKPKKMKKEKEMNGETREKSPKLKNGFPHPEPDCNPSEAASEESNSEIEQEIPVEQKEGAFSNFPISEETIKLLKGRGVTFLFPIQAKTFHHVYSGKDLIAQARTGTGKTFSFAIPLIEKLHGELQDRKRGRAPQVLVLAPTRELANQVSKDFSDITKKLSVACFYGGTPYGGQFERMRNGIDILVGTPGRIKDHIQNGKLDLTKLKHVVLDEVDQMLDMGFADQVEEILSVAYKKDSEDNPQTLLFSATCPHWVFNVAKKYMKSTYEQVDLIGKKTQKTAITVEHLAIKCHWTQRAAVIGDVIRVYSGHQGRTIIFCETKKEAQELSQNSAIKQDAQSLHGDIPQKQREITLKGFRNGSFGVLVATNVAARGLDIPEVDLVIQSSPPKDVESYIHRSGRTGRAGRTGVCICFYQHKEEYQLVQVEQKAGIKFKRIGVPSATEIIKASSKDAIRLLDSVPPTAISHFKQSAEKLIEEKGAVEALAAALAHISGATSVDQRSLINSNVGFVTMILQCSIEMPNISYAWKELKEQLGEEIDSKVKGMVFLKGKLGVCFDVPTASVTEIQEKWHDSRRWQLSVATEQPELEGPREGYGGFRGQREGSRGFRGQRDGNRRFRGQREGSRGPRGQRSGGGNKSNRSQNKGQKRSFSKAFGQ
UniProt P32321: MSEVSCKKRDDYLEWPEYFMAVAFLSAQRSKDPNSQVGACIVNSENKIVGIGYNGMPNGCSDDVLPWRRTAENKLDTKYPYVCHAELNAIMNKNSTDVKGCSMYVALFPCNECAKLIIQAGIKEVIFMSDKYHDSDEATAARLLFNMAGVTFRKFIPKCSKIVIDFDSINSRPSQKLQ

Some of the results follow.

Compound in one experiment: CCn1cc(-c2ccnc3[nH]c(-c4cccc(CN(C)C)c4)cc23)c(-c2ccc(NC(=O)N(C)C)cc2)n1
The experiment is described as follows: log2 fold change, soluble protein after heating vs DMSO (PISA); higher = thermal stabilisation; K562 lysate, 10 uM; active = over 0.2 and 3.5 SD of the protein, either way, in both replicates (recomputed). The essentials: (§1)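 Pellets of K562 cells were dounce-homogenised in PBS pH 7.4 with 1 mM MgCl2, and the crude extract was held at 1 mg/mL protein for a 30 min treatment with 10 μM compound. Aliquots were heated for 3 min over 48°C-58°C and pooled before NP-40 was added to 0.5% at 4°C. The supernatant from 21,000xg for 90 min was quantified by TMTpro 16plex LC-MS/MS with channel sums equalised. Values are reported from duplicates as log-two fold change in thermal stability relative to solvent controls.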
Turning to DCAF1 (UniProt Q9Y4B6), the log2 fold change was inactive: 0.023.

Take DDX54 isoform 2 (UniProt Q8TDD1): the log2 fold change was inactive: -0.056.

Turning to DECR1 (UniProt Q16698), the log2 fold change is inactive: 0.001.

For DCTN5 (UniProt Q9BTE1), the log2 fold change is inactive: 0.046.

D2HGDH (UniProt Q8N465): the log2 fold change is inactive: -0.068.

Consider DERPC (UniProt P0CG12), for which the log2 fold change was inactive: 0.152.

Turning to DCUN1D4 isoform 3 (UniProt Q92564), the log2 fold change was inactive: -0.036.

Consider DCP1A (UniProt Q9NPI6), for which the log2 fold change was inactive: -0.082.

Turning to DDX18 (UniProt Q9NVP1), the log2 fold change was inactive: -0.019.

As for DDX46 (UniProt Q7L014), the log2 fold change is inactive: -0.023.

Regarding DDX17 (UniProt Q92841), the log2 fold change is inactive: -0.042.

In the case of DCAF7 (UniProt P61962), the log2 fold change was inactive: 0.01.

As for DDX39B isoform 2 (UniProt Q13838), the log2 fold change was inactive: -0.038.

As for DDX21 (UniProt Q9NR30), the log2 fold change is inactive: -0.032.

Consider DCTD isoform 2 (UniProt P32321), for which the log2 fold change was inactive: -0.004.

Turning to CZIB (UniProt Q9NWV4), the log2 fold change is inactive: 0.125.

Compound in another experiment: CN1CCC(CNc2ccc3ncc(-c4cccc(OC(F)(F)F)c4)n3n2)CC1
The experiment is described as above. The essentials: as §1
On to DDX39A (UniProt O00148), for which the log2 fold change was inactive: -0.027.

With DCTN3 (UniProt O75935), the log2 fold change is inactive: -0.021.

With DDX20 (UniProt Q9UHI6), the log2 fold change is inactive: -0.094.

DDX59 (UniProt Q5T1V6): the log2 fold change was inactive: 0.027.

As to DEK (UniProt P35659), the log2 fold change was inactive: 0.01.

Turning to DENND4C (UniProt Q5VZ89), the log2 fold change is inactive: -0.045.

With DCP2 (UniProt Q8IU60), the log2 fold change is inactive: -0.13.

Consider CYP24A1 (UniProt Q07973), for which the log2 fold change is inactive: 0.268.

Consider DCUN1D1 (UniProt Q96GG9), for which the log2 fold change was inactive: 0.026.

For DAG1 (UniProt Q14118), the log2 fold change is inactive: 0.117.

Turning to DAZAP1 (UniProt Q96EP5), the log2 fold change was inactive: 0.032.

Regarding DAB2 (UniProt P98082), the log2 fold change is inactive: 0.016.

DDAH2 (UniProt O95865): the log2 fold change was inactive: -0.07.

Regarding DES (UniProt P17661), the log2 fold change is inactive: 0.149.

Turning to DDX6 (UniProt P26196), the log2 fold change is inactive: 0.049.

For DCAF6 isoform 3 (UniProt Q58WW2), the log2 fold change is inactive: -0.01.

On to DCXR (UniProt Q7Z4W1), for which the log2 fold change is inactive: 0.02.

On to DDX49 (UniProt Q9Y6V7), for which the log2 fold change was inactive: 0.03.

Regarding DENND6A (UniProt Q8IWF6), the log2 fold change was inactive: 0.004.

As for DCUN1D5 (UniProt Q9BTE7), the log2 fold change was inactive: -0.047.

For the target DECR2 (UniProt Q9NUI1), the log2 fold change is inactive: 0.016.

On to DBN1 (UniProt Q16643), for which the log2 fold change was inactive: 0.011.

As to DDX55 (UniProt Q8NHQ9), the log2 fold change was inactive: 0.021.

On to DFFA (UniProt O00273), for which the log2 fold change was inactive: 0.021.

In the case of DCAF1 (UniProt Q9Y4B6), the log2 fold change is inactive: -0.004.

On to DDX54 isoform 2 (UniProt Q8TDD1), for which the log2 fold change is inactive: 0.

Turning to DECR1 (UniProt Q16698), the log2 fold change was inactive: -0.01.

Take DCTN5 (UniProt Q9BTE1): the log2 fold change is inactive: -0.009.

Turning to D2HGDH (UniProt Q8N465), the log2 fold change is inactive: 0.081.

DERPC (UniProt P0CG12): the log2 fold change was inactive: -0.106.

DCUN1D4 isoform 3 (UniProt Q92564): the log2 fold change is inactive: 0.02.

Turning to DCP1A (UniProt Q9NPI6), the log2 fold change was inactive: 0.059.

For DDX18 (UniProt Q9NVP1), the log2 fold change is inactive: 0.032.

With DDX46 (UniProt Q7L014), the log2 fold change is inactive: 0.027.

Consider DDX17 (UniProt Q92841), for which the log2 fold change was inactive: 0.049.

Turning to DCAF7 (UniProt P61962), the log2 fold change is inactive: 0.037.

Consider DDX39B isoform 2 (UniProt Q13838), for which the log2 fold change was inactive: 0.005.

For the target DDX21 (UniProt Q9NR30), the log2 fold change is inactive: -0.031.

Take DCTD isoform 2 (UniProt P32321): the log2 fold change was inactive: 0.023.

As for CZIB (UniProt Q9NWV4), the log2 fold change was inactive: 0.017.

Compound in a further experiment: CN1CCN(CCOc2cc(OC3CCOCC3)c3c(Nc4c(Cl)ccc5c4OCO5)ncnc3c2)CC1 [saracatinib]
Described as above. The essentials:
as §1
With DDX39A (UniProt O00148), the log2 fold change is inactive: -0.032.

Consider DCTN3 (UniProt O75935), for which the log2 fold change was inactive: -0.011.

In the case of DDX20 (UniProt Q9UHI6), the log2 fold change was inactive: 0.036.

For DDX59 (UniProt Q5T1V6), the log2 fold change was inactive: -0.004.

DEK (UniProt P35659): the log2 fold change is inactive: -0.007.

For DENND4C (UniProt Q5VZ89), the log2 fold change is inactive: 0.056.

On to DCP2 (UniProt Q8IU60), for which the log2 fold change was inactive: -0.023.

As to CYP24A1 (UniProt Q07973), the log2 fold change is inactive: 0.056.

Turning to DCUN1D1 (UniProt Q96GG9), the log2 fold change was inactive: -0.01.

In the case of DAG1 (UniProt Q14118), the log2 fold change is inactive: -0.013.

Regarding DAZAP1 (UniProt Q96EP5), the log2 fold change is inactive: 0.003.

With DAB2 (UniProt P98082), the log2 fold change is inactive: 0.059.

With DDAH2 (UniProt O95865), the log2 fold change was inactive: -0.022.

Consider DES (UniProt P17661), for which the log2 fold change is inactive: 0.106.

DDX6 (UniProt P26196): the log2 fold change was inactive: -0.001.

Take DCAF6 isoform 3 (UniProt Q58WW2): the log2 fold change is inactive: -0.012.

Consider DCXR (UniProt Q7Z4W1), for which the log2 fold change was inactive: -0.002.

Turning to DDX49 (UniProt Q9Y6V7), the log2 fold change is inactive: -0.021.

For DENND6A (UniProt Q8IWF6), the log2 fold change is inactive: -0.012.

Consider DCUN1D5 (UniProt Q9BTE7), for which the log2 fold change is inactive: -0.02.

Regarding DECR2 (UniProt Q9NUI1), the log2 fold change is inactive: 0.027.

For the target DBN1 (UniProt Q16643), the log2 fold change is inactive: -0.015.

As for DDX55 (UniProt Q8NHQ9), the log2 fold change is inactive: -0.004.

DFFA (UniProt O00273): the log2 fold change is inactive: -0.035.

Consider DCAF1 (UniProt Q9Y4B6), for which the log2 fold change was inactive: 0.013.

On to DDX54 isoform 2 (UniProt Q8TDD1), for which the log2 fold change is inactive: -0.015.

For the target DECR1 (UniProt Q16698), the log2 fold change was inactive: -0.033.

Turning to DCTN5 (UniProt Q9BTE1), the log2 fold change was inactive: -0.033.

In the case of D2HGDH (UniProt Q8N465), the log2 fold change is inactive: 0.006.

Consider DERPC (UniProt P0CG12), for which the log2 fold change is inactive: 0.105.

Turning to DCUN1D4 isoform 3 (UniProt Q92564), the log2 fold change is inactive: 0.005.

Turning to DCP1A (UniProt Q9NPI6), the log2 fold change was inactive: -0.006.

For DDX18 (UniProt Q9NVP1), the log2 fold change was inactive: 0.003.

Take DDX46 (UniProt Q7L014): the log2 fold change was inactive: -0.02.

DDX17 (UniProt Q92841): the log2 fold change was inactive: -0.004.

As for DCAF7 (UniProt P61962), the log2 fold change is inactive: 0.022.

In the case of DDX39B isoform 2 (UniProt Q13838), the log2 fold change is inactive: -0.024.

In the case of DDX21 (UniProt Q9NR30), the log2 fold change was inactive: -0.007.

For the target DCTD isoform 2 (UniProt P32321), the log2 fold change is inactive: 0.025.

With CZIB (UniProt Q9NWV4), the log2 fold change is inactive: -0.006.
